Assay: Quantitation of 125I-labeled fusion protein bound to polystyrene dish
Conditions: fusion protein with trace 125I-labeled protein adsorbed to polystyrene

B1: CTfn6: CT:GST fusion protein, fibronectin type III repeat VI, residues 1318-1398 of SEQ ID NO 4 (protein)
chain: VVGSPKGISFSDITENSARVSWTPPRSRVDSYRVSYVPITGGTPNVVTVDGSKTRTKLVKLVPGVDYNVNIISVKGFEESE
modifications: left off: a dimerising Fc or GST
In the case of B1, the “amount of fusion protein bound to the polystyrene dish” value is reported as 100 pmol/mm^2.

B2: CTfn3: CT:GST fusion protein, fibronectin type III repeat III, residues 774-864 of SEQ ID NO 4 (protein)
chain: LDAPSQIEAKDVTDTTALITWSKPLAEIEGIELTYGPKDVPGDRTTIDLSEDENQYSIGNLRPHTEYEYEVTLISRRGDMESDPAKEVFVT
modifications: left off: a dimerising Fc or GST
In the case of B2, the “amount of fusion protein bound to the polystyrene dish” value is reported as 96 pmol/mm^2.
